Measured values reported in the supplement of paper PMC10331698.
± gives the standard deviation of the averaged measurements. Most values lie at the level of the controls, where differences are scatter.

How the values were obtained:
Assay in all cases: level (log10 ratio to DMSO vehicle control); higher = higher biomarker level / cell amount than vehicle control
[1] = compound: O=S(=O)(O)C(F)(F)C(F)(F)OC(F)(F)C(F)(F)F [Perfluoro(2-ethoxyethane)sulfonic acid]; settings: 2200 nM; in DMSO
Experimental: (§1)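 BioMAP Diversity Plus panel of 12 human primary cell co-culture systems (3C, 4H, LPS, SAg, BT, BF4T, BE3C, CASM3C, HDF3CGF, KF3CT, MyoF, Mphg). Compounds were added 1 h before stimulation and left for 24 h (MyoF 48 h; BT 72 h for soluble read-outs or 6 d for IgG). Biomarkers were read by ELISA, cytotoxicity by SRB, PBMC viability and proliferation by Alamar Blue. Each well value was divided by the mean of 8 DMSO control wells on the same plate and log10 transformed; duplicate blinded samples were tested at 4 concentrations.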

Nonafluoropentanamide = compound: NC(=O)C(F)(F)C(F)(F)C(F)(F)C(F)(F)F [Nonafluoropentanamide]; settings: 2200 nM; in DMSO
Experimental: as §1

Tetrafluorosuccinic acid = compound: O=C(O)C(F)(F)C(F)(F)C(=O)O [Tetrafluorosuccinic acid]; settings: 2200 nM; in DMSO
Experimental: as §1

[2] = compound: C=C(C)C(=O)OCCC(F)(F)C(F)(F)C(F)(F)C(F)(F)C(F)(F)C(F)(F)C(F)(F)C(F)(F)F [8:2 Fluorotelomer methacrylate]; settings: in DMSO
Experimental: as §1

Octafluoroadipamide = compound: NC(=O)C(F)(F)C(F)(F)C(F)(F)C(F)(F)C(N)=O [Octafluoroadipamide]; settings: 2200 nM; in DMSO
Experimental: as §1

[3] = compound: COC(=O)CCC(F)(F)C(F)(F)C(F)(F)C(F)(F)F [Methyl 2H,2H,3H,3H-perfluoroheptanoate]; settings: 2200 nM; in DMSO
Experimental: as §1

[4] = compound: O=C(O)C(F)(F)C(F)(F)C(F)(F)C(F)(F)C(F)(F)C(F)(F)C(F)(F)C(F)(F)Cl [9-Chloro-perfluorononanoic acid]; settings: in DMSO
Experimental: as §1

[5] = compound: NS(=O)(=O)C(F)(F)C(F)(F)C(F)(F)C(F)(F)C(F)(F)C(F)(F)F [Perfluorohexanesulfonamide]; settings: 2200 nM; in DMSO
Experimental: as §1

[6] = compound: OCCC(F)(F)C(F)(F)C(F)(F)C(F)(F)F [4:2 Fluorotelomer alcohol]; settings: 2200 nM; in DMSO
Experimental: as §1

[7] = compound: O=C(O)CCC(F)(F)C(F)(F)C(F)(F)C(F)(F)C(F)(F)F [2H,2H,3H,3H-Perfluorooctanoic acid]; settings: 2200 nM; in DMSO
Experimental: as §1

Perfluoropinacol = compound: OC(C(F)(F)F)(C(F)(F)F)C(O)(C(F)(F)F)C(F)(F)F [Perfluoropinacol]; settings: in DMSO
Experimental: as §1

[8] = compound: O=S(=O)(O)CCC(F)(F)C(F)(F)C(F)(F)C(F)(F)C(F)(F)C(F)(F)F [6:2 Fluorotelomer sulfonic acid]; settings: in DMSO
Experimental: as §1

[9] = compound: FC(F)(F)C(F)(F)C(F)(F)C(F)(F)C(F)(F)CCI [1-Iodo-1H,1H,2H,2H-perfluoroheptane]; settings: 2200 nM; in DMSO
Experimental: as §1

[10] = compound: C=C(C)C(=O)OCCC(F)(F)C(F)(F)C(F)(F)C(F)(F)C(F)(C(F)(F)F)C(F)(F)F [(Perfluoro-5-methylhexyl)ethyl 2-methylprop-2-enoate]; settings: in DMSO
Experimental: as §1

Test System	level (log10) [1]	level (log10) (Nonafluoropentanamide)	level (log10) (Tetrafluorosuccinic acid)	level (log10) ([2]; 740 nM)	level (log10) ([2]; 2200 nM)	level (log10) (Octafluoroadipamide)	level (log10) [3]	level (log10) ([4]; 2200 nM)	level (log10) ([4]; 6700 nM)	level (log10) ([4]; 20000 nM)	level (log10) [5]	level (log10) [6]	level (log10) [7]	level (log10) (Perfluoropinacol; 2200 nM)	level (log10) (Perfluoropinacol; 6700 nM)	level (log10) (Perfluoropinacol; 20000 nM)	level (log10) ([8]; 2200 nM)	level (log10) ([8]; 6700 nM)	level (log10) ([8]; 20000 nM)	level (log10) ([8]; 60000 nM)	level (log10) [9]	level (log10) ([10]; 740 nM)	level (log10) ([10]; 2200 nM)	level (log10) ([10]; 6700 nM)	level (log10) ([10]; 20000 nM)
BF4T:CXCL8/IL-8	0.004 ± 0.031	0.0465 ± 0.021	0.019 ± 0.025	-0.0055 ± 0.021	-0.008 ± 0.018	-0.008 ± 0.028	0.0305 ± 0.0064	0.058 ± 0.058	0.112 ± 0.042	0.0875 ± 0.015	0.0005 ± 0.11	0.0475 ± 0.059	0.0585 ± 0.019	0.078 ± 0.1	0.081 ± 0.024	0.0865 ± 0.032	0.019 ± 0.033	0.069 ± 0.058	0.0625 ± 0.044	0.0805 ± 0.057	0.0145 ± 0.019	0.0525 ± 0.023	0.0725 ± 0.046	0.067 ± 0.037	0.035 ± 0.027
MyoF:Collagen IV	0.01 ± 0.0099	-0.023 ± 0.064	0.011 ± 0.016	0 ± 0.0042	-0.001 ± 0.014	0.0035 ± 0.033	-0.005 ± 0.047	0.0095 ± 0.012	0.024 ± 0.0071	0.264 ± 0.031	-0.014 ± 0.0014	0.0065 ± 0.03	-0.026 ± 0.018	0.0295 ± 0.0092	0.0385 ± 0.005	0.165 ± 0.0028	-0.023 ± 0.031	-0.0185 ± 0.033	-0.006 ± 0.023	-0.002 ± 0.014	0.043 ± 0.02	0.0035 ± 0.0021	0.015 ± 0.048	0.025 ± 0.02	0.058 ± 0.1
MyoF:CXCL8/IL-8	0.0095 ± 0.087	-0.0145 ± 0.0021	-0.0115 ± 0.033	0.012 ± 0.037	0.002 ± 0.027	0.0185 ± 0.047	0 ± 0.047	-0.004 ± 0.023	0.0025 ± 0.015	-0.06 ± 0.0057	0.059 ± 0.054	-0.0065 ± 0.019	-0.0635 ± 0.025	0.0135 ± 0.022	0.0295 ± 0.005	0.0265 ± 0.012	-0.0515 ± 0.0064	0.007 ± 0.031	0 ± 0.018	0.016 ± 0.021	-0.0165 ± 0.0064	-0.012 ± 0.024	-0.0395 ± 0.011	-0.011 ± 0.011	-0.0255 ± 0.0064
MyoF:alpha-SM Actin	0.025 ± 0.017	0.0265 ± 0.029	0.019 ± 0.03	0.0075 ± 0.13	0.024 ± 0.073	0.0015 ± 0.08	-0.0195 ± 0.011	-0.0205 ± 0.033	-0.009 ± 0.028	-0.022 ± 0.013	0.013 ± 0.048	-0.0015 ± 0.011	0.0355 ± 0.066	-0.014 ± 0.023	-0.004 ± 0.0028	-0.14 ± 0.035	-0.0205 ± 0.033	0.016 ± 0.018	0.001 ± 0.021	-0.02 ± 0.082	0.005 ± 0.038	0.0125 ± 0.005	-0.012 ± 0.02	-0.018 ± 0.037	-0.0255 ± 0.04
KF3CT:CXCL10/IP-10	-0.004 ± 0.0085	-0.0125 ± 0.0021	0.005 ± 0.0014	0.001 ± 0.0014	-0.002 ± 0.0028	-0.0005 ± 0.021	-0.002 ± 0.021	-0.0105 ± 0.0064	-0.0235 ± 0.0035	-0.0715 ± 0.0092	-0.0095 ± 0.03	0.004 ± 0.0085	-0.01 ± 0.0071	-0.006 ± 0.0057	0.0025 ± 0.0035	-0.0205 ± 0.0064	0.0035 ± 0.0035	-0.0105 ± 0.011	-0.0055 ± 0.015	-0.0135 ± 0.00071	-0.0005 ± 0.0078	-0.001 ± 0.03	-0.017 ± 0.027	-0.0085 ± 0.012	-0.0325 ± 0.00071
BE3C:tPA	-0.0015 ± 0.0035	0.016 ± 0.016	0.0175 ± 0.0064	0.0095 ± 0.09	-0.0005 ± 0.088	-0.0085 ± 0.036	-0.002 ± 0.0057	0.0265 ± 0.04	0.0195 ± 0.023	-0.0985 ± 0.023	-0.02 ± 0.03	-0.008	-0.0145 ± 0.022	0.036 ± 0.0014	-0.0455 ± 0.0078	-0.224 ± 0.012	0.0035 ± 0.047	-0.0025 ± 0.016	0.029 ± 0.02	0.05 ± 0.025	-0.036 ± 0.051	-0.016 ± 0.0028	-0.004 ± 0.027	-0.0245 ± 0.00071	-0.0325 ± 0.021
KF3CT:CD54/ICAM-1	-0.025 ± 0.0028	-0.0055 ± 0.0021	-0.0035 ± 0.036	-0.01 ± 0.0071	-0.009 ± 0.011	-0.007 ± 0.023	-0.0015 ± 0.0021	-0.021 ± 0.0057	-0.0175 ± 0.00071	-0.039 ± 0.0014	-0.0125 ± 0.013	0.0005 ± 0.0021	-0.0175 ± 0.00071	-0.005 ± 0.0057	0.012 ± 0.0099	0.0185 ± 0.015	-0.033 ± 0.0042	-0.0095 ± 0.0064	-0.0265 ± 0.0035	-0.037 ± 0.0071	0.02 ± 0.016	-0.004 ± 0.0099	-0.0145 ± 0.012	-0.01 ± 0.0042	-0.0175 ± 0.0021
SAg:CXCL8/IL-8	0.0325 ± 0.0021	0.016 ± 0.0085	-0.016 ± 0.041	0.0025 ± 0.13	-0.0325 ± 0.073	0.0215 ± 0.084	0.0195 ± 0.057	0.024 ± 0.0057	0.0125 ± 0.0078	0.0445 ± 0.0092	-0.0015 ± 0.14	0.0075 ± 0.039	0.0065 ± 0.076	0.043 ± 0.055	0.0725 ± 0.029	-0.139 ± 0.041	0.017 ± 0.045	-0.012 ± 0.025	0.0325 ± 0.039	0.064 ± 0.03	-0.008 ± 0.041	0.015 ± 0.0071	0.077 ± 0.013	0.0115 ± 0.012	0.0405 ± 0.079
BE3C:CXCL9/MIG	-0.011 ± 0.0042	0.008 ± 0.013	-0.012 ± 0.0042	-0.0005 ± 0.026	-0.0155 ± 0.026	-0.0005 ± 0.011	0.0025 ± 0.0035	-0.006 ± 0.013	-0.0015 ± 0.00071	-0.047	0.005 ± 0.0014	0.001 ± 0.0028	-0.001 ± 0.0014	0 ± 0.0099	-0.0045 ± 0.015	0.002 ± 0.0071	-0.004 ± 0.0014	-0.005 ± 0.0014	-0.004 ± 0.0042	0.0015 ± 0.011	-0.0005 ± 0.0021	0.0145 ± 0.0035	0.016	0.009 ± 0.013	0.008 ± 0.0071
KF3CT:CXCL8/IL-8	0.0245 ± 0.018	-0.0305 ± 0.043	-0.013 ± 0.0028	-0.0125 ± 0.0035	-0.0075 ± 0.012	-0.002 ± 0.0099	0 ± 0.0071	0.0085 ± 0.0021	0.0015 ± 0.021	-0.0025 ± 0.0035	-0.008 ± 0.0042	-0.003 ± 0.0099	-0.0065 ± 0.033	0.0115 ± 0.013	-0.018 ± 0.011	-0.005 ± 0.0042	0.002 ± 0.04	-0.0005 ± 0.035	-0.001 ± 0.027	-0.0455 ± 0.022	-0.0005 ± 0.011	0.0065 ± 0.022	-0.01 ± 0.023	-0.013 ± 0.037	0.006 ± 0.03

Some of the entries above, reformatted.
Test System | level (log10) [1] | level (log10) (Nonafluoropentanamide) | level (log10) (Tetrafluorosuccinic acid) | level (log10) ([2]; 740 nM) | level (log10) ([2]; 2200 nM) | level (log10) (Octafluoroadipamide) | level (log10) [3] | level (log10) ([4]; 2200 nM) | level (log10) ([4]; 6700 nM) | level (log10) ([4]; 20000 nM) | level (log10) [5] | level (log10) [6] | level (log10) [7] | level (log10) (Perfluoropinacol; 2200 nM) | level (log10) (Perfluoropinacol; 6700 nM) | level (log10) (Perfluoropinacol; 20000 nM) | level (log10) ([8]; 2200 nM) | level (log10) ([8]; 6700 nM) | level (log10) ([8]; 20000 nM) | level (log10) ([8]; 60000 nM) | level (log10) [9] | level (log10) ([10]; 740 nM) | level (log10) ([10]; 2200 nM) | level (log10) ([10]; 6700 nM) | level (log10) ([10]; 20000 nM)
KF3CT:CD54/ICAM-1 | -0.025 ± 0.0028 | -0.0055 ± 0.0021 | -0.0035 ± 0.036 | -0.01 ± 0.0071 | -0.009 ± 0.011 | -0.007 ± 0.023 | -0.0015 ± 0.0021 | -0.021 ± 0.0057 | -0.0175 ± 0.00071 | -0.039 ± 0.0014 | -0.0125 ± 0.013 | 0.0005 ± 0.0021 | -0.0175 ± 0.00071 | -0.005 ± 0.0057 | 0.012 ± 0.0099 | 0.0185 ± 0.015 | -0.033 ± 0.0042 | -0.0095 ± 0.0064 | -0.0265 ± 0.0035 | -0.037 ± 0.0071 | 0.02 ± 0.016 | -0.004 ± 0.0099 | -0.0145 ± 0.012 | -0.01 ± 0.0042 | -0.0175 ± 0.0021
SAg:CXCL8/IL-8 | 0.0325 ± 0.0021 | 0.016 ± 0.0085 | -0.016 ± 0.041 | 0.0025 ± 0.13 | -0.0325 ± 0.073 | 0.0215 ± 0.084 | 0.0195 ± 0.057 | 0.024 ± 0.0057 | 0.0125 ± 0.0078 | 0.0445 ± 0.0092 | -0.0015 ± 0.14 | 0.0075 ± 0.039 | 0.0065 ± 0.076 | 0.043 ± 0.055 | 0.0725 ± 0.029 | -0.139 ± 0.041 | 0.017 ± 0.045 | -0.012 ± 0.025 | 0.0325 ± 0.039 | 0.064 ± 0.03 | -0.008 ± 0.041 | 0.015 ± 0.0071 | 0.077 ± 0.013 | 0.0115 ± 0.012 | 0.0405 ± 0.079
